Source: PubChem BioAssay AID686943 (Drosophila RNAi Screening Center, 2013)
In all, the deposit lists about 23,000 reagents; below is an unselected part of those with a known target gene and a result. 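Extra replicates exist only for a retested subset of genes; insulin dose and duration not given; both raised and lowered dpERK matter.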 The numbers tell different reagents against one gene apart. A plus sign joins genes that one reagent is predicted to hit. Not stated in the record: the amount of reagent, the time to read-out.

Purpose: 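Fly genes whose loss alters ERK activation after insulin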 (primary screen)
Cell system: Drosophila S2R+ haemocyte-like cells expressing YFP-tagged ERK (Rolled)
Reagent: long dsRNA against Drosophila genes
Treatment: insulin stimulation versus unstimulated cells; dose and duration not given
Measurement: 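Per-plate z-scores of phospho-ERK immunostaining normalised to YFP-tagged ERK, measured with and without insulin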
Direction: replicate 1, z-score of dpERK with insulin and replicate 2, z-score of dpERK with insulin: higher = more active ERK per ERK-YFP after insulin; replicate 1, z-score of dpERK under basal conditions: higher = more basal active ERK per ERK-YFP; replicate 1, z-score of ERK-YFP with insulin: higher = more YFP-tagged ERK signal

| gene knocked down | reagent | replicate 1, z-score of dpERK with insulin | replicate 2, z-score of dpERK with insulin | replicate 1, z-score of dpERK under basal conditions | replicate 1, z-score of ERK-YFP with insulin |
| --- | --- | --- | --- | --- | --- |
| CG15345 (retired record) | 1 | -0.03 | 0.48 | 0.41 | 0 |
| CG15345 (retired record) | 2 | 0.23 | -0.21 | -0.51 | -0.01 |
| CG11597 | 1 | 0.07 | -0.97 | 0.72 | -0.48 |
| Psn | 1 | 0.06 | -0.66 | -0.69 | -0.23 |
| Mnt | 1 | -0.71 | 0.92 | 0.08 | -1.68 |
| Mnt | 2 | 0.81 | 1.52 | 0.71 | 0.03 |
| Hcs | 1 | 0.62 | 0.88 | 1.32 | -0.19 |
| Hcs | 2 | -0.22 | 0.85 | -0.26 | 0.89 |
| VAChT | 1 | -0.26 | -0.06 | -0.67 | 0.4 |
| VAChT | 2 | -0.45 | 0.29 | -0.93 | -0.75 |
| CG4338 | 1 | 0.25 | 0.61 | -0.11 | 1.08 |
| Slip1 | 1 | -0.29 | -0.72 | 0.12 | 0.2 |
| CG7963 | 1 | 0.07 | -0.35 | 0.4 | -0.02 |
| CG31815 | 1 | -0.05 | -0.66 | -0.92 | 1.29 |
| conu | 1 | 1.1 | 0.26 | -0.49 | -0.31 |
| QC | 1 | -0.39 | -1.22 | 0.27 | 0.27 |
| CG10512 | 1 | 0.14 | -0.23 | 0.45 | -0.2 |
| salt | 1 | 0.51 | 0.99 | -0.04 | -0.22 |
| Hao + Pex6 | 1 | -0.03 | 0.34 | -0.5 | -0.39 |
| Hao + Pex6 | 2 | -0.44 | -1.2 | -0.37 | 0.04 |
| Dscam2 | 1 | 0.21 | 0.31 | 0.21 | 0.05 |
| Dscam2 | 2 | 0.32 | -0.73 | 0.52 | -0.94 |
| Dscam2 | 3 | -3.73 | -3.24 | -0.6 | -3.88 |
| Dscam2 | 4 | 0.17 | 0.49 | 0.23 | 0.8 |
| Dscam2 | 5 | 0.27 | 1.09 | -0.49 | -0.07 |
| Dscam2 | 6 | 0.37 | -0.29 | 1.67 | 0.3 |
| CG14406 | 1 | 0.25 | -0.56 | 0.2 | 0.14 |
| CG11857 | 1 | 0.55 | 0.13 | -0.19 | -0.9 |
| RAF2 | 1 | -0.55 | -0.67 | -0.42 | 0.34 |
| RAF2 | 2 | -0.75 | -0.18 | 0.35 | 0.26 |
| Ttc19 | 1 | -0.31 | -0.26 | 0.45 | -0.17 |

Laid out differently: 4 of the entries above.
gene knocked down,reagent,"replicate 1, z-score of dpERK with insulin","replicate 2, z-score of dpERK with insulin","replicate 1, z-score of dpERK under basal conditions","replicate 1, z-score of ERK-YFP with insulin"
VAChT,1,-0.26,-0.06,-0.67,0.4
VAChT,2,-0.45,0.29,-0.93,-0.75
CG4338,1,0.25,0.61,-0.11,1.08
Slip1,1,-0.29,-0.72,0.12,0.2

Next results follow.
| gene knocked down | reagent | replicate 1, z-score of dpERK with insulin | replicate 2, z-score of dpERK with insulin | replicate 1, z-score of dpERK under basal conditions | replicate 1, z-score of ERK-YFP with insulin |
| --- | --- | --- | --- | --- | --- |
| ValRS | 1 | 0.1 | 0.72 | -0.2 | 0.17 |
| mam | 1 | -5.51 | -2.01 | -2.63 | -5.5 |
| mam | 2 | -2.91 | -4.29 | -3.78 | -3.08 |
| Ndc1 | 1 | 0.53 | -0.59 | 0.26 | -1.33 |
| U2af38 | 1 | -1.17 | -2.56 | -0.26 | 3.16 |
| CG32718 | 1 | 0.15 | -0.1 | -0.13 | -0.06 |
| ics | 1 | -0.34 | 0.02 | -0.6 | -0.02 |
| CG11786 | 1 | 0.21 | 0 | 0.58 | -0.31 |
| CG12691 | 1 | 0.38 | 1.13 | 0.49 | -0.52 |
| CG31606 | 1 | -0.17 | -0.15 | 0.94 | 0.33 |
| CG5800 | 1 | 0.31 | 0.23 | 0.44 | 0.68 |
| eas | 1 | 0.19 | -0.66 | 0.09 | 0.03 |
| PQBP1 | 1 | 0.03 | -0.74 | -1.12 | 0.85 |
| CG32237 | 1 | 0.19 | -0.05 | 0.48 | 0.13 |
| CG32237 | 2 | 0.47 | 1.42 | 1.16 | 0.16 |
| CG11714 | 1 | -1.05 | 0.21 | -1.61 | 1.41 |
| Ugt302K1 | 1 | 0.75 | 0.9 | -0.35 | 0.21 |
| Saf6 | 1 | 0.96 | -0.24 | -0.1 | -1.85 |
| Rabex-5 | 1 | 0.45 | 0.02 | 0.42 | 0.7 |
| CG30088 | 1 | -0.6 | 0.53 | -0.92 | 1.37 |
| Jon65Aii | 1 | -0.17 | -0.22 | -0.34 | 0.6 |
| Hk | 1 | -5.07 | -3.85 | 0.06 | -1.89 |
| Hk | 2 | -2.41 | -0.02 | -1.49 | 0.13 |
| Hk | 3 | -1.58 | -2.39 | -0.78 | -1.59 |
| Hk | 4 | -2.55 | -2.56 | -0.16 | 1.22 |
| CG6700 | 1 | -0.08 | -0.26 | 0.33 | -0.86 |
